Results published in patent publication US7101664B2, “Bioactive oligopeptides” (Polymun Scientific Immunbiologische Forschung GmbH, priority 1999, dated 2006).
At least one peptide structure holds a part that was inferred or is arguable (an end, a ring closure or a residue). Where a SMILES comes first, the peptide text is derived from it.

Test system: Mouse hybridoma CAU 96
Assay: Batch T-flask culture of hybridoma with oligopeptide supplements (Example 2)
Format: cell-based
Excerpt: Cells: Mouse hybridoma CAU 96 producing monoclonal lgG2a
Starting viable cell density is 310000 (3.1*10^5) cells per ml.

[1] = Table 4, Day 6, supplement 0.1% w/v
[2] = Table 4, Day 6, supplement 0.2% w/v

In the case of `C[C@H](N)C(=O)N[C@@H](C)C(=O)N[C@@H](C)C(=O)N[C@@H](C)C(=O)O` [Tetraalanine, Ala-Ala-Ala-Ala] (H-AAAA-OH; N-terminus and C-terminus assumed), the Monoclonal antibody [1] is reported as 133 mg/L, the Viable cell number [1] is reported as 1370 cells/μL and the Monoclonal antibody [2] is reported as 153 mg/L. For the same compound, the Viable cell number [2] was 1560 cells/μL.
